# According to PubChem BioAssay AID493014 (National Center for Advancing Translational Sciences (NCATS), 2011):
# The other results are listed elsewhere or left out. The main result of the screen is listed elsewhere. These columns were measured beside it and carry no call. Most of these compounds were active or inconclusive in the main read-out, so they are no random draw. The note in brackets gives the kind of curve behind each potency; many fits are weak.
# Assay: qHTS Assay to Find Inhibitors of Chronic Active B-Cell Receptor Signaling
# Settings: ABC-DLBCL IkBa-CBG/CBR reporter, luminescence ratio (green luciferase fused to IkBa over red control in TMD8 lymphoma cells), 4 h
# Outline: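 Compounds up to 46 uM were incubated four hours with TMD8 cells whose green CBG68 luciferase is fused to IkappaBalpha; red CBR luminescence normalised the signal, and concentration-effect curves were fitted to fusion, red and ratio data.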
# [1] = measured here: CBR red luminescence, cell number
# [2] = measured here: IkBa-CBG green luminescence
Structure (SMILES),AC50 [1],AC50 [2]
CCCCNC(=O)c1sc2nc(C)cc(COC)c2c1-n1cccc1,"0.316 µM [falling, full curve, poor fit]",
C/C(=N\OCc1ccc(C#N)cc1)c1cc2ccccc2o1,"7.08 µM [rising, partial curve]",
CC(C)Oc1ccc(S(=O)(=O)N2CCOCC2)cc1NC(=O)CN1C(=O)NC2(CCCC2)C1=O,"2.82 µM [rising, partial curve, poor fit]",
Cc1nnsc1-c1onc(C)c1C(=O)Nc1cc(Cl)cc(Cl)c1,"35.5 µM [falling, partial curve, poor fit]",
COc1ccc(NC(=O)CSC2=Nc3ccccc3C3=NC(CCC(=O)NCCc4ccccc4)C(=O)N23)cc1 (stereo unspecified),"6.31 µM [rising, partial curve, poor fit]",
O=C(COc1ccccc1)Nn1cnc2ccccc21,"20 µM [falling, partial curve, poor fit]",
Cn1cccc1C(=S)N1CCOCC1,"2.31 µM [rising, partial curve]",
COC(=O)c1ccc(CSc2nnc(C)s2)cc1,"3.98 µM [rising, partial curve]",
CC(C)C[C@H]1CN=C(Nc2ccccc2)N1CCCCc1ccccc1,"35.5 µM [falling, single point]",
N/C(=N\OC(=O)CC1CCCCC1)c1ccccn1,"17.8 µM [falling, partial curve]",
CCN(CC)c1ccc(/C=N/N2CC(=O)NC2=S)cc1,"0.92 µM [rising, full curve, poor fit]",
O=C(NC1CC1)C1CCC(=O)N1C1CCCC1 (stereo unspecified),"1.16 µM [falling, full curve, poor fit]",
COc1ccc(S(=O)(=O)N2CCOC2CNC(=O)C(=O)NCC(C)C)cc1OC (stereo unspecified),"28.2 µM [falling, single point]",
O=C(NCCc1cccs1)c1ccc(CS(=O)Cc2ccc(Cl)cc2)o1 (stereo unspecified),"3.55 µM [falling, partial curve, poor fit]",
CCc1sc(C(=O)Nc2cc(Cl)ccc2N2CCCCC2)cc1C,"5.8 µM [falling, partial curve, poor fit]",
COc1cccc(N/C(SC)=C(/C#N)C(N)=O)c1,"35.5 µM [falling, single point]",
Cc1cc(F)ccc1S(=O)(=O)Nc1ccccc1C(=O)Nc1ccccc1-c1nc2ccccc2[nH]1,"29.1 µM [falling, single point]",
O=C(c1cc(-c2ccc(O)cc2)on1)N1CCCCCC1,"6.31 µM [falling, partial curve]",
NNC(=O)c1ccc(O)cc1O,"16.4 µM [falling, partial curve]",
CCCc1cc(=O)n2[nH]c(-c3ccc(Cl)cc3)cc2n1,"6.31 µM [falling, partial curve]",
Cc1c(NC(=S)N/N=C/c2ccc([N+](=O)[O-])cc2O)c(=O)n(-c2ccccc2)n1C,"0.355 µM [falling, partial curve, poor fit]",
O=C(CCc1nnc2ccc(NCc3ccccc3Cl)nn12)NC1CCCC1,"4.47 µM [rising, partial curve, poor fit]",

Structure (SMILES),AC50 [1],AC50 [2]
CC(=O)Oc1ccc(/C=C2/CCc3ccccc3C2=O)cc1,"10 µM [falling, partial curve]",
O=C(O)C1(NS(=O)(=O)c2ccc(F)c(Cl)c2)CCCCC1,"25.9 µM [rising, single point]",
CCOC(=O)c1c(C)oc2cc(Br)c(O)c(Br)c12,"29.1 µM [rising, single point]",
O=C(c1ccc(C(F)(F)F)cc1)C1CCCN(C(=O)CN2C(=O)CSC2=O)C1 (stereo unspecified),"17.8 µM [rising, partial curve, poor fit]",
CCOc1ccc2nc(SC(C)C(N)=O)[nH]c2c1 (stereo unspecified),"10 µM [rising, partial curve]",
CCCCCCc1c(O)nc(SCC(=O)O)[nH]c1=O,"23.1 µM [falling, single point]",
CN1/C(=C\C=N\NC(=O)c2ccccc2Br)C(C)(C)c2ccccc21,"23.1 µM [falling, single point]",
Cc1c(-n2c(=O)n(Cc3ccccc3)c(=O)c3[nH]cnc32)cccc1S(C)=O (stereo unspecified),"25.1 µM [rising, single point]",
C=CCOc1ccc2c(CC)cc(=O)oc2c1C,"4.11 µM [rising, full curve, poor fit]",
COc1cccc(CNC(=O)C2CCN(S(=O)(=O)N3CCC4(CC3)OCCO4)CC2)c1,"20.6 µM [rising, partial curve, poor fit]",
CCOC(=O)c1c(C=O)c(C)n(Cc2ccc(C)cc2)c1C,"29.1 µM [falling, single point]",
Cn1c(=O)c2c(ncn2CC(=O)NC[C@H]2O[C@@H](n3cnc4c(N)ncnc43)[C@H](O)[C@@H]2O)n(C)c1=O,"16.4 µM [rising, partial curve]","29.1 µM [falling, single point]"
C[C@@]12C(=O)N(CCO)CC(=O)N1[C@H](/C=C/c1ccccc1)[C@@H]1C(=O)N(c3ccccc3)C(=O)[C@@H]12,"1.41 µM [falling, partial curve, poor fit]",
CCCCC(NC(=O)Cc1c(C)c2cc3c4c(oc3cc2oc1=O)CCCC4)C(=O)O (stereo unspecified),"35.5 µM [falling, single point]",
CCOc1ccccc1NC(=O)C(CC)Sc1nc2ccsc2c(=O)n1CCC(=O)O (stereo unspecified),"20 µM [rising, partial curve, poor fit]",
COc1ccc(-c2nc3ccccn3c2NC2CCCCC2)cc1SC1CCCCC1,"13 µM [falling, partial curve]",
FC(F)Sc1ccc(NC(=S)NCC2CCCCC2)cc1,"29.1 µM [falling, single point]",
COc1ccc(Nc2nc(N3CCCCC3)nc3ccccc23)c(OC)c1,"13 µM [rising, partial curve, poor fit]",
CC1CC2=C(NC(=S)NC2c2cccc(F)c2)/C(=C/c2cccc(F)c2)C1 (stereo unspecified),"15.8 µM [falling, single point]",
COc1ccc(/C=C2/C(=O)C(C)(C(C)C)CCC2C)cc1 (stereo unspecified),"0.708 µM [falling, partial curve, poor fit]",
CC(=O)Nc1ccc(/C=C/c2nc(-c3ccccc3O)n[nH]2)cc1,"1.41 µM [falling, partial curve, poor fit]",
CC(C)n1cc(/C=N/Nc2ccc(C(=O)O)cc2)c2ccccc21,,"3.16 µM [rising, full curve, poor fit]"

# Rewritten with tabs: 4 of the compounds above
Structure (SMILES)	AC50 [1]	AC50 [2]
Cc1cc(F)ccc1S(=O)(=O)Nc1ccccc1C(=O)Nc1ccccc1-c1nc2ccccc2[nH]1	29.1 µM [falling, single point]	
O=C(c1cc(-c2ccc(O)cc2)on1)N1CCCCCC1	6.31 µM [falling, partial curve]	
NNC(=O)c1ccc(O)cc1O	16.4 µM [falling, partial curve]	
CCCc1cc(=O)n2[nH]c(-c3ccc(Cl)cc3)cc2n1	6.31 µM [falling, partial curve]	

# (continued)

Structure (SMILES),AC50 [1],AC50 [2]
C=CCn1cccc(C(=O)Nc2ccc(OCC)cc2)c1=O,"35.5 µM [falling, single point]",
CCC(=O)OC1CC(C)N(C(=O)c2ccccc2)c2ccc(C)cc21 (stereo unspecified),"0.82 µM [rising, full curve, poor fit]",
O=C(CCl)N1CCN2C(=O)c3ccccc3C12c1ccc(Cl)cc1 (stereo unspecified),"11.2 µM [falling, partial curve]",
CCc1ccc(Nc2nnc(SCC(=O)Nc3ccc(C(=O)O)cc3)s2)cc1,"22.4 µM [falling, single point]",
COc1cccc2[nH]c3c(N4CCc5ccccc5C4)ncnc3c12,"1.58 µM [falling, full curve]",
Cc1sc2ncnc(N3CCC(C(=O)Nc4ccc(F)cc4Cl)CC3)c2c1C,"14.6 µM [falling, single point]",
CCc1cc(=O)oc2cc(C)cc(OC(C)C(=O)NCCN3CCOCC3)c12 (stereo unspecified),"22.4 µM [falling, partial curve, poor fit]",
O=C(/C=C\c1ccco1)Oc1cccc2cccnc12,,"35.5 µM [falling, single point]"
CCc1ccc(-n2c(C)nc3cc(C(=O)NCc4cccnc4)ccc32)cc1,"10 µM [falling, partial curve]",
CN(C)S(=O)(=O)c1cccc(NC(=O)CSc2ncnc3ccccc23)c1,"22.4 µM [falling, partial curve, poor fit]",
COc1cc(OC)cc(-c2cc3nc(C)c(CCC(=O)O)c(C)n3n2)c1,"2.31 µM [falling, full curve, poor fit]",
COc1ccc(-c2cnc(SCC(=O)Nc3ccc4c(c3)OCO4)n2Cc2ccco2)cc1,"4.11 µM [falling, full curve, poor fit]",
COc1ccc(-c2csc(NC(=O)c3ccccc3C(=O)O)n2)cc1,"25.1 µM [falling, single point]",
O=C(CN1CCN(C2CCCCC2)CC1)c1ccc2cc[nH]c2c1,"2.59 µM [falling, partial curve, poor fit]",
Cc1csc(NC(=O)c2cnc3ccccc3n2)n1,"8.91 µM [falling, partial curve, poor fit]",
Nc1nn2c(-c3ccccc3)cc(=O)[nH]c2c1N=Nc1ccc(O)cc1,"2 µM [falling, full curve]",
Cc1cccc(N2C(=O)CC(SC(=Nc3ccccc3)Nc3ccccc3)C2=O)c1 (stereo unspecified),"29.1 µM [falling, single point]","23.1 µM [rising, partial curve, poor fit]"
O=C1OC(c2ccc(F)cc2)=C/C1=C\c1ccc(O)cc1,"2.82 µM [falling, full curve, poor fit]",
CSc1sc(C)cc1/C=N/O,"7.31 µM [rising, partial curve]",
C/C(=N\NC(=O)COc1ccc(C)cc1Br)c1cc([N+](=O)[O-])cs1,"35.5 µM [rising, single point]",
